Whole data set: some 33,000 sequences, median “E-score (-0.5 to 0.5)” near -0.016, cut for the highest 2% near 0.3. The list shows a part of the results.
What follows are sequences tested against T1, Yer184c (UniProt P39961) (assay: PBM E-score (8-mer binding enrichment) (E-score (-0.5 to 0.5)); higher = stronger / more preferred TF binding). Details: protein concentration: 100 nM; construct: GST-full length.
T1 sequence: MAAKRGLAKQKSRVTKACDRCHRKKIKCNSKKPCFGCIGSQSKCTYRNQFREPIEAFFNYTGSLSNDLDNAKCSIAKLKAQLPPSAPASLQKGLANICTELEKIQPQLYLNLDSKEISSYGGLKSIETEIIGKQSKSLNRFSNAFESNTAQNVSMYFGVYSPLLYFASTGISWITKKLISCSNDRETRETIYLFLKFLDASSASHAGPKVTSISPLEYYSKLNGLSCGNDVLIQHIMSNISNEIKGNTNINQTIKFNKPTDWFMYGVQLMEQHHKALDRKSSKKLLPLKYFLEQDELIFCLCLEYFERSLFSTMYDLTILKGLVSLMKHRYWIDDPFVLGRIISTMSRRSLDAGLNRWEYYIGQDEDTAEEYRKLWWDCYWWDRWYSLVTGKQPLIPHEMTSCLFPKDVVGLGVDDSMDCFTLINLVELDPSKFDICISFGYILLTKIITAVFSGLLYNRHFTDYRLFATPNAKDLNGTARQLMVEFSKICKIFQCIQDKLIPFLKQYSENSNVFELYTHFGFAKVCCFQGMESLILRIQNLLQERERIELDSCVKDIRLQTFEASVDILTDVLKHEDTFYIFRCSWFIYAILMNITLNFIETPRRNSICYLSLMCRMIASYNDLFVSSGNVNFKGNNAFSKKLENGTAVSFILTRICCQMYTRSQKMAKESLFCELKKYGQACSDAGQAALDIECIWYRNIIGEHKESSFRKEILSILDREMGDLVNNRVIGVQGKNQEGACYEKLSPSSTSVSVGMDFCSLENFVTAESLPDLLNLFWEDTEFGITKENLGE
Outline: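 E-scores (a modified Wilcoxon-Mann-Whitney statistic) were assigned by the Universal PBM Analysis Suite to every ungapped eight-base word pooled with its reverse complement. The input came from universal all-10-mer Agilent arrays made double-stranded by primer extension and probed with GST-tagged yeast transcription factors at about 100-200 nM. Fluorescent anti-GST detected bound protein, and masliner normalised the scans.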

Sequence | PBM E-score
CGCCCAAC | -0.12
CAATGCGA | -0.0882
ACCGCTGG | -0.135
AGGGACAG | -0.363
CCACCCCG | -0.116
CCTCAAAC | 0.0519
ACTCTTCT | -0.0645
GAAGAGGA | -0.185
CTAGCTCC | -0.123
AGGTCCGA | 0.197
ATTCTAAG | 0.0463
AATGTCTC | -0.06
AACAATGA | 0.0995
CCCTCCCC | -0.127
GAGATTGA | -0.0286
CATTCCCA | -0.185
ACCTGGAA | 0.0875
ATGCCGCA | 0.124
AGACGACA | -0.107
ACCATAAG | -0.177
ATATCTGA | 0.131
TTACCTAA | 0.126
GAATATTA | 0.146
GGGCGTAC | -0.105
ACCATTTA | 0.137

Sequence | PBM E-score
CTGCGGTA | 0.0914
CCAATGCG | -0.21
GTTGAAGA | 0.0149
CAGACGTA | 0.00462
GACCAAGA | 0.0101
TTCACAAA | 0.204
CAGGGATA | -0.0856
AAACCGCC | 0.147
CCCAGCTA | -0.25
GCTCATCC | -0.14
CGCACGTA | -0.227
ACGCCCCC | -0.165
AGTGCCTC | -0.128
CGCGATAG | -0.0308
AAACGCAC | -0.0781
GAGAACTC | -0.193
AACAGCCC | 0.0219
ATCGTACG | -0.0735
GATCTCAC | -0.021
CCGACTAA | 0.167
ATCTATGC | -0.138
TCTCGTCA | 0.0951
GACACTAA | 0.0304
AAGATCAA | 0.0888
AATAGCCA | -0.0467

Sequence | PBM E-score
GTTGCAAA | 0.228
AATTAATC | 0.138
CTGCATGC | 0.0562
AGGGTCTC | -0.314
CTCCGCGC | 0.112
GAGGCAAC | -0.152
TCCACCGA | 0.0324
CGCTGCTA | -0.23
AAGGGATG | -0.212
GTTGGTAA | 0.0934
ACGTCCAA | -0.0977
CGTGGAGA | -0.166
GGCTTAAC | -0.0348
ACGATTCG | 0.0707
ATGAGCGG | -0.0669
CCCAGGTA | -0.31
CCCCTCGA | -0.147
CAATGGGC | -0.236
GCTTATAC | -0.0191
AGAGAGTA | -0.0738
TCTGGAAA | 0.0756
ATCAGACG | 0.0852
ACTGCGGG | -0.00285
TGGAGCAA | 0.0711
AGAATAGC | -0.0261

Already shown: an excerpt of the list.
Sequence | PBM E-score
CTGCGGTA | 0.0914
CCAATGCG | -0.21
GTTGAAGA | 0.0149
CAGACGTA | 0.00462
GACCAAGA | 0.0101

(next part)

Sequence | PBM E-score
AGTCGTAC | -0.159
ATCCTCGG | 0.218
ACGAGGGG | -0.301
GCGTTGAC | -0.15
CCCAATAA | -0.131
TACTGCTA | -0.039
ATCTGCTC | -0.0905
AAACACAT | 0.049
AGGGCCCT | -0.383
GCAGGTTA | -0.16
AAATGACT | -0.0279
AAACGCGC | -0.0626
CGTGTGCA | -0.144
CACCCGTC | -0.155
CAAGTGGG | -0.0251
CAACGGCC | 0.0623
ACTCACTG | -0.0576
AAGTGTAA | -0.244
AACAACAA | 0.165
AAAGTCAT | -0.0361
AGCCATTG | -0.0138
AGATCCAC | 0.0454
GAGCGGAA | 0.295
AATGTGAC | -0.0966
CACGAGGG | -0.224

Sequence | PBM E-score
AGGACTAA | 0.102
ACAGGTAG | -0.296
AGCAAGGA | -0.173
AAGGTCTA | -0.131
ATTGAAGC | 0.0798
TATTTGAA | 0.207
CCAACACA | -0.0185
AATCGCAT | 0.00749
ACTCATAC | 0.129
CTTAGACA | -0.162
CCAGCGGC | 0.0656
CTAGTAGC | 0.0113
GCCCAGAA | -0.0744
CCTTAGCG | -0.121
GCCTTGAC | -0.0539
AAAAAGGT | 0.0261
AAGTAACA | 0.101
CCGCTGAA | 0.119
CCTGCTCA | -0.0858
ACTACGAG | -0.166
CACTTTTA | 0.0548
AATGCGTG | -0.109
AATCCGGA | 0.401
CGCCTCAA | -0.0432
CGTGTGTA | 0.0942

A second format for part of the listing above:
GAGAACTC
  PBM E-score: -0.193
CAATGGGC
  PBM E-score: -0.236
AAACGCGC
  PBM E-score: -0.0626
GAGCGGAA
  PBM E-score: 0.295

(next part)

Sequence | PBM E-score
GTCGAGTA | 0.0216
AACGCGAA | 0.0123
GTTAGACA | 0.222
ACGCCGCC | -0.0562
AGTGAGTA | 0.232
GCGCGCAC | 0.151
CGGTGACG | -0.0568
CTCATCTC | -0.0289
ATAACTAT | 0.0484
GGCATGAC | -0.199
TACTAATA | 0.16
TGCGCGAA | 0.154
TCCATCGA | -0.0504
GGTAGAGA | -0.189
AAATCGCG | 0.0706
CAATACCA | -0.03
TCTACTAA | 0.178
AACCTCAA | -0.0339
CATATGCG | -0.127
GGCTCTTA | -0.0325
ATTTACCG | 0.244
GTCCGGTA | 0.206
CGTATTTC | 0.00818
GATTCGAC | -0.112
ATGGATCC | 0.0253

Sequence | PBM E-score
TCGGAAGA | 0.255
ATGGGGTA | -0.0679
GTACCAAA | 0.102
GGGTTGTA | -0.0942
CGAGGACG | 0.0225
GCGGCGAA | 0.27
TAGTAGAA | 0.105
ATTGTAGA | -0.0109
GGGCTTAA | -0.0829
AGTTATTC | 0.00474
ACTTGGTA | 0.073
ATACAGTG | -0.152
GGGGTACC | -0.269
CTGGGGAC | -0.316
AGTGGTTA | -0.151
AGGGTAGG | -0.181
CCATACGC | -0.0778
GTCGTGCA | -0.124
AAAGACTG | -0.165
AAGCCTTA | -0.06
ACGGAGCA | 0.059
ACTTTACT | -0.143

Reference: the supplement of paper PMC3334620
